Results are given in words; binding and its absence hold for the method and conditions named. In cells and extracts the contact can be indirect. Some entries that bind do so weakly or less than the wild type.

Chains of the proteins cited; added tags and fusions are not shown.
UniProt Q8R4B8: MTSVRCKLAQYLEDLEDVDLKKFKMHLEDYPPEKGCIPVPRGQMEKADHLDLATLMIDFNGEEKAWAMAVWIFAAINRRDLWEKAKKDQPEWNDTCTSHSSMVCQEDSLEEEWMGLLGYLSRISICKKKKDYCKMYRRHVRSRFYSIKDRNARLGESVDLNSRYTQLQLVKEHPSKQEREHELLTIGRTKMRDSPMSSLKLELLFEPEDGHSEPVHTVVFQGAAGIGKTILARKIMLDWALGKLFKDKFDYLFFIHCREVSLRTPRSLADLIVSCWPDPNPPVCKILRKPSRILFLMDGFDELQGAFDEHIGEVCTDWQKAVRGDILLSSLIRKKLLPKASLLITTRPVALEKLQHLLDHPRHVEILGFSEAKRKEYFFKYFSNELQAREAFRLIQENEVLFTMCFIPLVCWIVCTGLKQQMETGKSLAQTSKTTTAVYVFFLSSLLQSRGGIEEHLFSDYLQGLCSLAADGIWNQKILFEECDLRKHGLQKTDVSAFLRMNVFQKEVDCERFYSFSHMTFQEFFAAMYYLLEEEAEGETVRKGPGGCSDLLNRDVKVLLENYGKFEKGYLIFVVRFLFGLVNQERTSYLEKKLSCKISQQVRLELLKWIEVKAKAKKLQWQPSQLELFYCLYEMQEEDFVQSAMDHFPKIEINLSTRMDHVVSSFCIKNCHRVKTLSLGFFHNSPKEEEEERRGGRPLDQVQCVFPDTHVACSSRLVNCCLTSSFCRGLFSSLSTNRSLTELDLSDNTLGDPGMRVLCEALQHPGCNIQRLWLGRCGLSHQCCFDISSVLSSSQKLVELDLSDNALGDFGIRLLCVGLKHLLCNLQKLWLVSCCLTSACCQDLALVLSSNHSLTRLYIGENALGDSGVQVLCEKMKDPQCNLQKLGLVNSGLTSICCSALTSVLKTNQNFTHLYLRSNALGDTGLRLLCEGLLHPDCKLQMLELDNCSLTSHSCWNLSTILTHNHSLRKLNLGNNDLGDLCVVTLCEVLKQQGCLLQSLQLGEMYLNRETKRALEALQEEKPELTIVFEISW

This test has as its target T1, receptor-interacting protein kinase 1 (mouse (endogenous in left ventricle)) (UniProt Q60855).
T1 sequence: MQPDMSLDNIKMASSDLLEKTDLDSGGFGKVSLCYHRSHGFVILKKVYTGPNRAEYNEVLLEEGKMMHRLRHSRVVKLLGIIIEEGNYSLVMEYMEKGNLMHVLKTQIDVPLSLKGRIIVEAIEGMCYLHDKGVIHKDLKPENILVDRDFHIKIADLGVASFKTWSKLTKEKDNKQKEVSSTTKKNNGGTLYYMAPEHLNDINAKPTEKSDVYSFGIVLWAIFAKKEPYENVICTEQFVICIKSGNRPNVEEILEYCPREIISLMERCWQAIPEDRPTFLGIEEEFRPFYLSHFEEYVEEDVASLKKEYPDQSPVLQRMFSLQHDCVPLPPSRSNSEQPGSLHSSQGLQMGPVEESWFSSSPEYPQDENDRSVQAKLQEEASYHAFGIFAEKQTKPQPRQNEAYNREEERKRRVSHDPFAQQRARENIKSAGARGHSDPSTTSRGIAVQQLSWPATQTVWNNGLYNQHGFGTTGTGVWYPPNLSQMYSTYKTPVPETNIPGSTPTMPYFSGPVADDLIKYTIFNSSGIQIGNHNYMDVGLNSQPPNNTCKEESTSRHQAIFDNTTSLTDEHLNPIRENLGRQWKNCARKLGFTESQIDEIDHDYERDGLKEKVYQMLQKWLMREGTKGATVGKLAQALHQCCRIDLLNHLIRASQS
Briefly: co-IP; mouse myocardial (left-ventricular) tissue lysed in RIPA buffer with protease and phosphatase inhibitors; 1 μg primary antibody (TGFBR1, TAK1 or RIPK1) or IgG, 4°C; protein A/G beads overnight; western blot; groups of mice: control, shTGFBR1 + control, HFpEF (HFD + L-NAME), shTGFBR1 + HFpEF; which antibody precipitated in which panel is not told. (Immunoblotting shows a protein as a band on a membrane.)

On to NLRP3 (from UniProt Q8R4B8 1-1033), for which the binding entry is reported as “binds”.

For the origin of these results see paper PMC12396675.
